The target in the assay is T1, Protein tyrosine phosphatase 1B (PTP1B) (human (endogenous in BGC823 and XN0422)) (UniProt P18031).
T1 sequence: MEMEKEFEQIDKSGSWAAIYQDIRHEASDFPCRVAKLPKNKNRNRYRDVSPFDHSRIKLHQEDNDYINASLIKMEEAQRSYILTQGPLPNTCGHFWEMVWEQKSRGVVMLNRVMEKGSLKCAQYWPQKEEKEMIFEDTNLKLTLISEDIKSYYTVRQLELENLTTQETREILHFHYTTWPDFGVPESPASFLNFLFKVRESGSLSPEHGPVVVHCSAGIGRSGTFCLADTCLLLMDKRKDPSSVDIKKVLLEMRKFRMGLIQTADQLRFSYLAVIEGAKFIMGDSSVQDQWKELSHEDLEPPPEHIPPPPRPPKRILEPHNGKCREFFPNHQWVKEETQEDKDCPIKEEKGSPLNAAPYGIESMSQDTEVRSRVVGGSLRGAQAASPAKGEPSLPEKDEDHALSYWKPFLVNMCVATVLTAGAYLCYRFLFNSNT
As to the kind of experiment: co-IP; Pierce Co-IP kit; 10 ug antibody or matched IgG immobilised on AminoLink Plus resin, incubated with 500 uL lysate of PLXDC2-overexpressing (c-Myc tag) BGC823 and XN0422 cells overnight at 4 °C; eluate immunoblotted. On the technique in general: Immunoblotting shows a protein as a band on a membrane.

Protein sequences, listed by entry. Tags and fused reporters are not part of them. Residues count along the entry.
UniProt Q6UX71, residues 31-529: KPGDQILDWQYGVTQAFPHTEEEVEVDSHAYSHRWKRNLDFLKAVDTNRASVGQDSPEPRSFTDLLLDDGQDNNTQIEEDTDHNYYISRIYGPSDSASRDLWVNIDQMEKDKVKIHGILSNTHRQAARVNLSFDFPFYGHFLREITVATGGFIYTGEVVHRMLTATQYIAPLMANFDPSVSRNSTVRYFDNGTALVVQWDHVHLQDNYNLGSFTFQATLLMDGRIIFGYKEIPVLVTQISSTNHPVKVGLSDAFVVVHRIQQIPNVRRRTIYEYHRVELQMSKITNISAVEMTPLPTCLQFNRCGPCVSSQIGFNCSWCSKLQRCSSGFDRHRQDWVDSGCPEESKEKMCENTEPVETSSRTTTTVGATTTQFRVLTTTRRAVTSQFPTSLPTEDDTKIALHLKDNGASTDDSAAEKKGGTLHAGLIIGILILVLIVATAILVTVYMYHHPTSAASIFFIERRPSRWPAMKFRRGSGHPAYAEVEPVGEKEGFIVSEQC

Results are given in words; binding and its absence hold for the method and conditions named. Binding seen in cells or lysates may run through a third protein. Some binding calls cover weakened binding; strength is not graded here.

“Plexin-domain containing 2 (PLXDC2), human full-length with c-Myc tag (from UniProt Q6UX71 31-529)”: the binding result is “binds”.

The record behind these values is PMC9338914.
